One assay addresses CB1R-YFP (human) (UniProt P21554). Briefly: FRET or BRET; BRET between β-arrestin 2-Rluc and receptor-YFP in living HEK-293T cells 48 h after transfection; cells treated with CBG (1 nM to 10 μM, 15 min); CB1R-YFP cells also with 100 nM AEA or ACEA with or without 100 nM or 1 μM CBG; CB2R-YFP cells also with co-expressed untagged CB1R; 5 μM coelenterazine H; read-out in mBRET units. On the technique in general: BRET reads energy transfer from a luciferase to a nearby fluorophore.

Amino acid sequences for entries named in this document (tags omitted).
UniProt P21554: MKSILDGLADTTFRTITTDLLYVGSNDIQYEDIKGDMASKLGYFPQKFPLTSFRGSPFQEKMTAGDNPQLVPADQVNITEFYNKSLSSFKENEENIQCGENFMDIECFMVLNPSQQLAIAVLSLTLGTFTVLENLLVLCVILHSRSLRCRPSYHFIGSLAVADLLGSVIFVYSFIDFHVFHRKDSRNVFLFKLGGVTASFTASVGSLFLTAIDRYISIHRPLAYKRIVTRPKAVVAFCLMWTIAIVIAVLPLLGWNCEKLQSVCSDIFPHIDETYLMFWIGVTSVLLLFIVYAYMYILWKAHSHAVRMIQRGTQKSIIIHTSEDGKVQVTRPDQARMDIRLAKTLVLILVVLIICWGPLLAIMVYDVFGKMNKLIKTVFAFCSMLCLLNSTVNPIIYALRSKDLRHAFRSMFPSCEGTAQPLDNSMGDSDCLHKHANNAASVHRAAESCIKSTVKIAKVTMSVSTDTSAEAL
UniProt P34972: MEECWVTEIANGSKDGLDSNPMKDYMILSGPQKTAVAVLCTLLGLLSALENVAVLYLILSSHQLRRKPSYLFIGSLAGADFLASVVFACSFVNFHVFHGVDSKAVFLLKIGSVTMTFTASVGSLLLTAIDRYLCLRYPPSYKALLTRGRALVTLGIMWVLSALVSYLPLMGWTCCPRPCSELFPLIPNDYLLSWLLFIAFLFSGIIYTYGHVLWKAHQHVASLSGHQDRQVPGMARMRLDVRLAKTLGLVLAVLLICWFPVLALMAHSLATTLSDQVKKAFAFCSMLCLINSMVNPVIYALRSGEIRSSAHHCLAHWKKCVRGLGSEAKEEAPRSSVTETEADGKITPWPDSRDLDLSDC
UniProt P32121: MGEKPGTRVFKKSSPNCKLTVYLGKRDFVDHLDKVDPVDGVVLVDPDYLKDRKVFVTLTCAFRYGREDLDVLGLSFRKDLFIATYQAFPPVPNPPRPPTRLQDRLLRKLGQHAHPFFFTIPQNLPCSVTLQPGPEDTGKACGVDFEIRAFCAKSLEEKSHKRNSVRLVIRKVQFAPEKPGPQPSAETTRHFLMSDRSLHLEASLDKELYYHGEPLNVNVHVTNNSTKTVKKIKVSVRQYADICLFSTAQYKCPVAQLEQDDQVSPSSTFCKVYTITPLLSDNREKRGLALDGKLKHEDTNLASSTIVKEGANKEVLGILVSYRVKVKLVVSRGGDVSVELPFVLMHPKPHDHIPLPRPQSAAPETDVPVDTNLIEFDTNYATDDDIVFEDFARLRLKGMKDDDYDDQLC

The next assay deals with CB2R-YFP (human) (UniProt P34972). Described as above.

These are yes or no findings as the source states them, for the method shown. Binding seen in cells or lysates may run through a third protein. Some results given as binding are weak or reduced against the parent protein; the word gives no strength.

Take “β-arrestin 2-Rluc (from UniProt P32121 1-409)”: the binding entry in the assay with CB1R-YFP (human) and with CB2R-YFP (human) was “binds” each time.

The values are drawn from paper PMC6021502, “Cannabigerol Action at Cannabinoid CB1 and CB2 Receptors and at CB1–CB2 Heteroreceptor Complexes” (Frontiers in Pharmacology, 2018).
